Test results as given in patent publication US20220348663A1 (Y BIOLOGICS, published 2022).
These are yes or no findings as the source states them, for the method shown. Binding calls can cover weak binding; strength is not graded here.

Key:
[1] = biological target: cynomolgus B7-H3 (#90806-C08H, Sino) (cynomolgus monkey); assay: ELISA on coated CynoMonkeyB7H3, OD450nm
[2] = biological target: cynomolgus B7-H3 (#90806-C08H, Sino) (cynomolgus monkey); assay: ELISA on coated cynomolgusMonkey B7H3, OD450nm

Row | binding [1] | binding [2] | Binder
1 | binds | – | CD276-033E03 (antibody, V domains shown) VH: QVQLVESGGGLVQSGGSLRLSCAASGFTFSSYAMSWVRQAPGKGLEWVSVISGSGGSRYYADSVKGRFTISRDNSKNTLYLQMNSLRAEDTAVYYCASHTIPGAWDVWGQGTLVTVSS VL: QSALTQPASVSGSPGQSITISCTGTTRDVGGYNYVSWYQQHPGKAPKLMIYDVNNRPSGVSYRFSGSKSGNTASLTISGLQAEDEADYYCSSYTTSSRRVFGTGTKVTVL
2 | – | binds | CD276-039C05 (antibody, V domains shown, Converted from scFv to IgG form; Parent of the _LS_ light-chain variants) VH: QVQLVESGAEVKKPGSSVKVSCKASGGTFSSYAISWVRQAPGQGLEWMGRIIPILGIANYAQKFQGRVTITADKSTSTAYMELSSLRSEDTAVYYCANGGDSSSWYTFDYWGQGTLITVSS VL: DIQMTQSPSTLSASVGDKLTLTCRASQSISRWLAWYQQKPGKAPKLLIYKASYLQTGVPSRFSGSGTGTEFTLTISSLQPDDFATYYCQQYNTFPLTFAGGTKVEIK
3 | – | binds | CD276-039C05_LS_002B07 (antibody, V domains shown) VH: QVQLVESGAEVKKPGSSVKVSCKASGGTFSSYAISWVRQAPGQGLEWMGRIIPILGIANYAQKFQGRVTITADKSTSTAYMELSSLRSEDTAVYYCANGGDSSSWYTFDYWGQGTLITVSS VL: DIQMTQSPSSLSASVGDRVTITCRASQGISSYLAWYQQKPGKAPKLLIYAASTLQSGVPSRFSGSGSGTDFTLTISSLQPEDFATYYCQQYYSFPLTFGGGTKVEIK
